Results taken from PubChem BioAssay AID330 (DTP/NCI, 2004).
The list does not hold the whole screen: it gathers tests that were run many times, whatever their T/C, doses with no T/C, and many T/C values between a quarter and a half above the control. Other doses and runs of a compound stand elsewhere. T/C: endpoint of the treated group in % of that of the vehicle group. Some entries give survivors of the animals treated and no T/C: the source files T/C as zero there, which appears to mark a toxic dose or a test without result, not a measured value. Some survivor counts are full or nearly so, which does not show that the dose was tolerated: the source hardly ever lists a survival T/C far under the control, and the zero likely stands for such cases as well. Survivors were counted at the toxicity check, usually on the fifth day, unless a day is given; later deaths do not show. Schedules are NCI's codes, read here as Q, the interval in days (D) or hours (H), X, the number of doses. Some doses were run more than once; their values stand side by side, smallest first. For survival time, this PubChem deposit counts one and a half times the control or more as active, and values a quarter to a half above the control carry no call in these data; other NCI protocols may use other cut-offs. Some T/C values carry the count of animals alive at the toxicity check (mostly the fifth day); where none is given, no animal had died by that day.

Test system: P388 leukemia ip, CD2F1 mice, survival T/C
Assay: NCI In Vivo Anticancer Drug Screen. Data for tumor model P388 Leukemia (intraperitoneal) in CD2F1 (CDF1) mice
Conditions: T/C endpoint: median survival time, higher T/C = longer survival
[1] = dose: 100.0 mg/kg/injection, schedule: Q01DX009 (ip), vehicle: saline with Tween-80
[2] = dose: 200.0 mg/kg/injection, schedule: Q01DX009 (ip), vehicle: saline with Tween-80
[3] = dose: 240.0 mg/kg/injection, schedule: Q01DX005 (ip), vehicle: saline with Tween-80
[4] = dose: 100.0 mg/kg/injection, schedule: Q01DX005 (ip), vehicle: saline
[5] = dose: 200.0 mg/kg/injection, schedule: Q01DX005 (ip), vehicle: saline
[6] = dose: 100.0 mg/kg/injection, schedule: Q04DX003 (ip), vehicle: saline with Tween-80
[7] = dose: 200.0 mg/kg/injection, schedule: Q04DX003 (ip), vehicle: saline with Tween-80
[8] = dose: 12.5 mg/kg/injection, schedule: Q01DX009 (ip), vehicle: saline with Tween-80
[9] = dose: 25.0 mg/kg/injection, schedule: Q01DX009 (ip), vehicle: saline with Tween-80
[10] = dose: 50.0 mg/kg/injection, schedule: Q01DX009 (ip), vehicle: Klucel (hydroxypropylcellulose) (HPC)
[11] = dose: 200.0 mg/kg/injection, schedule: Q01DX009 (ip), vehicle: saline

**Q.** Which survivor count (dose: 25.0 mg/kg/injection, schedule: Q01DX009 (ip), vehicle: water) does the source give for `O=NNc1ccc(S(=O)(=O)c2ccc3ccccc3c2)cn1` here?
**A.** 6 of 6

**Q.** What about the survivor count (dose: 50.0 mg/kg/injection, schedule: Q01DX009 (ip), vehicle: water) of the same compound?
**A.** 6 of 6

**Q.** And the survivor count (dose: 100.0 mg/kg/injection, schedule: Q01DX009 (ip), vehicle: water)?
**A.** 0 of 6

**Q.** What does the source list for `CCCCOP(=O)(CCCC)OCCCC.CCCCOP(=O)(CCCC)OCCCC.CCCCOP(=O)(CCCC)OCCCC.CCCCOP(=O)(CCCC)OCCCC.O.O.[Co+2].[O-][Cl+3]([O-])([O-])O`?
**A.** survivor count [1]: 6 of 6; survivor count [2]: 0 of 6

**Q.** What does the source list for `Cc1cc(N=[N+]=[N-])c2cc(F)ccc2n1`?
**A.** survivor count (dose: 120.0 mg/kg/injection, schedule: Q01DX005 (ip), vehicle: saline with Tween-80): 2 of 6 and 3 of 6; survivor count [3]: 0 of 6

**Q.** `CCCCCC(O)/C=C/[C@H]1C(O)CC2OC(CSCCC(=O)O)C[C@@H]21` (some centres undefined) was tested. Which survivor count (dose: 400.0 mg/kg/injection, schedule: Q04DX002 (ip), vehicle: saline with Tween-80) did it give?
**A.** 6 of 6

**Q.** How did the survivor count (dose: 50.0 mg/kg/injection, schedule: Q01DX005 (ip), vehicle: saline) turn out when `CN(C)CCOc1ccccc1NC1=C(Cl)C(=O)C(Nc2ccccc2OCCN(C)C)=C(Cl)C1=O` was run?
**A.** 2 of 6 and 2 of 5

**Q.** And the survivor count [4]?
**A.** 0 of 5

**Q.** What about the survivor count [5] of the same compound?
**A.** 0 of 5

**Q.** Which survivor count [6] does the source give for `CC(C)(C)c1ccc(C(=O)O)c(O)c1.CC(C)(C)c1ccc(C(=O)O)c(O)c1.[Cu]` here?
**A.** 3 of 6

**Q.** And the survivor count [7]?
**A.** 3 of 6

**Q.** And the survivor count (dose: 400.0 mg/kg/injection, schedule: Q04DX003 (ip), vehicle: saline with Tween-80)?
**A.** 0 of 6

**Q.** With `C[Si](C)(C)n1nnn(-c2ccccc2)c1=O` as the compound, how does the T/C [8] read?
**A.** 141 % of control

**Q.** What about the T/C [9] of the same compound?
**A.** 128 % of control

**Q.** And the T/C [1]?
**A.** 126 % of control

**Q.** And the T/C [2]?
**A.** 126 % of control [4 of 6 alive]

**Q.** And the survivor count (dose: 400.0 mg/kg/injection, schedule: Q01DX009 (ip), vehicle: saline with Tween-80)?
**A.** 1 of 6

**Q.** How did the T/C (dose: 0.78 mg/kg/injection, schedule: Q04DX003 (ip), vehicle: other) turn out when `Nc1cc2c(c[n+](CCCCCCCCCBr)c3ccccc23)c2ccccc12` was run?
**A.** 145 % of control

**Q.** And the T/C (dose: 1.56 mg/kg/injection, schedule: Q04DX003 (ip), vehicle: other)?
**A.** 135 % of control

**Q.** What about the T/C (dose: 3.13 mg/kg/injection, schedule: Q04DX003 (ip), vehicle: other) of the same compound?
**A.** 147 % of control

**Q.** And the survivor count (dose: 6.25 mg/kg/injection, schedule: Q04DX003 (ip), vehicle: other)?
**A.** 6 of 6

**Q.** What about the survivor count (dose: 12.5 mg/kg/injection, schedule: Q04DX003 (ip), vehicle: other) of the same compound?
**A.** 1 of 6 and 5 of 6

**Q.** And the survivor count (dose: 25.0 mg/kg/injection, schedule: Q04DX003 (ip), vehicle: other)?
**A.** 0 of 6

**Q.** For `Cn1c(C(C)(C)OC(=O)Oc2ccccc2)cnc1[N+](=O)[O-]`, which survivor count [10] is on record?
**A.** 6 of 6

**Q.** With `OC(c1cc(-c2ccc(C(F)(F)F)cc2)nc(C(F)(F)F)c1)C1CCCCN1` (centres undefined) as the compound, how does the survivor count (dose: 50.0 mg/kg/injection, schedule: Q01DX009 (ip), vehicle: saline with Tween-80) read?
**A.** 5 of 6

**Q.** What does the source list for `CNc1c2ccccc2nc2ccccc12`?
**A.** survivor count (dose: 50.0 mg/kg/injection, schedule: Q04DX002 (ip), vehicle: distilled water + Tween-80): 5 of 6; survivor count (dose: 100.0 mg/kg/injection, schedule: Q04DX002 (ip), vehicle: distilled water + Tween-80): 0 of 6; survivor count (dose: 200.0 mg/kg/injection, schedule: Q04DX002 (ip), vehicle: distilled water + Tween-80): 0 of 6; survivor count (dose: 400.0 mg/kg/injection, schedule: Q04DX002 (ip), vehicle: distilled water + Tween-80): 0 of 6

**Q.** Which results are given for `CCN(CC)Cc1c[nH]c2ccccc12`?
**A.** survivor count [10]: 0 of 6; survivor count (dose: 100.0 mg/kg/injection, schedule: Q01DX009 (ip), vehicle: Klucel (hydroxypropylcellulose) (HPC)): 1 of 6; survivor count (dose: 200.0 mg/kg/injection, schedule: Q01DX009 (ip), vehicle: Klucel (hydroxypropylcellulose) (HPC)): 0 of 6

**Q.** Which survivor count [3] does the source give for `CCOC(=O)C1=C(C(=O)c2ccc(C)cc2)C(c2ccc([N+](=O)[O-])cc2)C(C(=O)c2ccc(C)cc2)=C(C(=O)OCC)N1` here?
**A.** 6 of 6

**Q.** `C=CCCCCCCCCCCCCCC1=NCC[N+]1(CCO)CC(O)COc1cc(Cl)c(Cl)c(Cl)c1` (centres undefined) was tested. Which survivor count [11] did it give?
**A.** 2 of 6

**Q.** `O=c1[nH]c(=O)c2nc3c([N+](=O)[O-])ccc(-c4cccc5ccccc45)c3nc2[nH]1` was tested. Which survivor count [11] did it give?
**A.** 1 of 6

**Q.** For `CN(C)CCCC1(c2ccccc2)SC(C)(C)c2ccc(Cl)cc21` (centres undefined), which survivor count (dose: 100.0 mg/kg/injection, schedule: Q01DX001 (ip), vehicle: Klucel (hydroxypropylcellulose) (HPC)) is on record?
**A.** 1 of 6

**Q.** How did the survivor count (dose: 1.56 mg/kg/injection, schedule: Q01DX009 (ip), vehicle: Klucel (hydroxypropylcellulose) (HPC)) turn out when `Clc1ccc([Si]23OCCN(CCO2)CCO3)cc1` was run?
**A.** 0 of 6

**Q.** What about the survivor count (dose: 3.12 mg/kg/injection, schedule: Q01DX009 (ip), vehicle: Klucel (hydroxypropylcellulose) (HPC)) of the same compound?
**A.** 0 of 6

**Q.** What about the survivor count (dose: 6.25 mg/kg/injection, schedule: Q01DX009 (ip), vehicle: Klucel (hydroxypropylcellulose) (HPC)) of the same compound?
**A.** 0 of 6

**Q.** `C[CH2][Pb]([CH2]C)([CH2]C)[O]C(=O)CBr` was tested. Which T/C (dose: 6.0 mg/kg/injection, schedule: Q01DX009 (ip), vehicle: saline) did it give?
**A.** 126 % of control

**Q.** For `CC(O)CC(O)CC1CCCO1` (centres undefined), which survivor count [4] is on record?
**A.** 5 of 5

**Q.** And the survivor count [5]?
**A.** 5 of 5

**Q.** `C=C1CC2(CCCC(=O)C2)OC1=O` (centres undefined) was tested. Which survivor count (dose: 100.0 mg/kg/injection, schedule: Q01DX005 (ip), vehicle: Klucel (hydroxypropylcellulose) (HPC)) did it give?
**A.** 3 of 5

**Q.** And the survivor count (dose: 200.0 mg/kg/injection, schedule: Q01DX005 (ip), vehicle: Klucel (hydroxypropylcellulose) (HPC))?
**A.** 3 of 5

**Q.** Which survivor count (dose: 50.0 mg/kg/injection, schedule: Q04DX002 (ip), vehicle: saline) does the source give for `Clc1nccc2c1ncn2[Te]n1cnc2c(Cl)nccc21` here?
**A.** 2 of 6

**Q.** `Cc1cc2c(c(C(C)(C)C)c1)OC(=O)/C2=C1/C(=O)Oc2c1cc(C)cc2C(C)(C)C` was tested. Which survivor count (dose: 15.0 mg/kg/injection, schedule: Q01DX005 (ip), vehicle: Klucel (hydroxypropylcellulose) (HPC)) did it give?
**A.** 6 of 6

**Q.** And the survivor count (dose: 30.0 mg/kg/injection, schedule: Q01DX005 (ip), vehicle: Klucel (hydroxypropylcellulose) (HPC))?
**A.** 6 of 6

**Q.** What about the survivor count (dose: 60.0 mg/kg/injection, schedule: Q01DX005 (ip), vehicle: Klucel (hydroxypropylcellulose) (HPC)) of the same compound?
**A.** 6 of 6

**Q.** And the survivor count (dose: 120.0 mg/kg/injection, schedule: Q01DX005 (ip), vehicle: Klucel (hydroxypropylcellulose) (HPC))?
**A.** 6 of 6

**Q.** What about the survivor count (dose: 240.0 mg/kg/injection, schedule: Q01DX005 (ip), vehicle: Klucel (hydroxypropylcellulose) (HPC)) of the same compound?
**A.** 6 of 6

**Q.** For `COc1cc2cc[n+]3c(C)c4cc5c(cc4cc3c2cc1OC)OCO5` (tested in a mixture with another compound), which T/C (dose: 1.33 mg/kg/injection, schedule: Q01DX009 (ip), vehicle: saline) is on record?
**A.** 133 % of control

**Q.** And the T/C (dose: 2.0 mg/kg/injection, schedule: Q01DX009 (ip), vehicle: saline)?
**A.** 135 % of control

**Q.** And the T/C (dose: 3.0 mg/kg/injection, schedule: Q01DX009 (ip), vehicle: saline)?
**A.** 144 % of control

**Q.** What about the T/C (dose: 5.56 mg/kg/injection, schedule: Q01DX009 (ip), vehicle: saline) of the same compound?
**A.** 143 % of control

**Q.** `CCCCCCCC/C=C\CCCCCCCCSC1=CC(=O)C(OC)=C(OC)C1=O` was tested. Which survivor count [10] did it give?
**A.** 4 of 6

**Q.** For `O=C(NNC1CCN(Cc2ccccc2)CC1)c1ccccc1`, which survivor count (dose: 40.0 mg/kg/injection, schedule: Q04DX003 (ip), vehicle: saline with Tween-80) is on record?
**A.** 2 of 6

**Q.** Which results are given for `CC1(C)N=C(N)N=C(N)N1c1ccc(CCCCc2ccc(S(=O)(=O)F)cc2)cc1`?
**A.** T/C (dose: 8.0 mg/kg/injection, schedule: Q01DX009 (ip), vehicle: saline sonified): 138 % of control; T/C [8]: 140 % of control; T/C [9]: 136 % of control; survivor count [6]: 5 of 6; survivor count [7]: 0 of 6

**Q.** Which survivor count (dose: 500.0 mg/kg/injection, schedule: Q01DX010 (ip), vehicle: saline) does the source give for `O=c1cn[nH]c(=O)[nH]1` here?
**A.** 7 of 7
